We go through four sequences from patent US20070287153.

Amino acid sequences for entries named in this document (tags omitted). Residues count along the entry.
UniProt P05107, 747-769: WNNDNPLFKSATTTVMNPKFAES

The exact form of at least one protein or probe is not confirmed. A negative result means that nothing was seen under these conditions. For some assays here: Weaker means in comparison with the reference protein, sequence or condition of that experiment. For some assays here: At least one result comes from cells or an extract, where the contact may be indirect.

The target of series [1] is CD18cyt peptide A23 (carboxy-terminal half) (Homo sapiens) (UniProt P05107). As to the kind of experiment: EMSA. The settings on record: 12.5-25 uM peptide, streptavidin, 40 uM tRNA, synthetic protein, protein details: synthetic, biotinylated, streptavidin-bound, label: 32P. On the technique in general: A gel shift assay detects complexes by their altered migration in electrophoresis.

Series [2] addresses CD18cyt peptide B16 (N-terminal) (Homo sapiens) (UniProt P05107). As to the kind of experiment: EMSA. The conditions noted are these: 12.5-25 uM peptide, streptavidin, 40 uM tRNA, synthetic protein, protein details: synthetic, biotinylated, streptavidin-bound, label: 32P.
Series [3] concerns the target CD18cyt peptide C17 (middle portion) (Homo sapiens) (UniProt P05107). Briefly: EMSA. The conditions noted are these: 12.5-25 uM peptide, streptavidin, 40 uM tRNA, synthetic protein, protein details: synthetic, biotinylated, streptavidin-bound, label: 32P.
The subject of series [4] is LFA-1 (CD18/beta-2 integrin with alpha-L), endogenous (Homo sapiens). Briefly: EMSA. The conditions noted are these: Jurkat E6 lysate, protein in an extract, label: 32P.
Series [5] has as its system LFA-1 (CD18/beta-2 integrin), endogenous in cells (Homo sapiens). Briefly: activity in cells. The settings on record: protein in cells, dose not given here.
For series [6], the system named is monoclonal antibody MHM23 (anti LFA-1 beta subunit). As to the kind of experiment: EMSA. The settings on record: antibody alone without lysate; purified native protein; label: 32P; variant of D20.
Series [7] has as its system monoclonal antibody OKT3 (anti T-cell receptor epsilon chain). Briefly: EMSA. The settings on record: antibody alone without lysate; purified native protein; label: 32P; variant of D20.

With “GGGCGCUAAGUCCUCGCUCACAAGGUGCAAUGCAAUAUGUGAGUGCGCCGCCCUUUCUCUCGCGCGACUCGGACCUAC [TR-D31]”, the binding result in series [1] (variant of D31) was “no binding”; in series [2] (variant of D31), “binds more weakly”; in series [3] (variant of D31), “binds more weakly”; in series [4] (analogous to TR-D20, data not shown, variant of D31) it was “binds”.

Take “GGGCGCUAAGUCCUCGCUCACGGCGCAUUGGCCGAAUUUCUGACUACCGUGAAUGAGGGUACGCGCGACUCGGAUCCUAC [TR-D42]”: the binding result is given as “no binding” in series [1] (variant of D42); “no binding” in series [2] (variant of D42); “no binding” in series [3] (variant of D42); “no binding” in series [4] (25-40 uM tRNA, variant of D42). Moreover, in series [5] (no effect on PMA-induced adhesion of PBMC to ICAM-1, variant of D42), the “functional effect of the aptamer” value is given as “not active”.

In the case of “GGGCGCUAAGUCCUCGCUCAUACAACGAGGGGUCGUGUAGGGAUGUAUGGGCUUGGACACACGCGCGACUCGGAUCCUAC [TR-D20]”, the binding result in series [1] (variant of D20) is given as “no binding”; in series [2] (1 mM MgCl2, 23 C, variant of D20), “binds”; in series [3] (variant of D20) it was “binds”; in series [4] (25-40 uM tRNA, 1 mM MgCl2, supershift with MHM23 and MEM170, variant of D20), “binds”; in series [6], “no binding”; in series [7], “no binding”. Besides, in series [5] (vaccinia-expressed RNA almost completely blocks PMA-induced adhesion to ICAM-1 in Jurkat, also reduced in PBMC, variant of D20), the “functional effect of the aptamer” value is recorded as “active”.

Take “GGGCGCUAAGUCCUCGCUCAUGCGCGUCCCAUGGGGUAUAGAGGGGUCGAAGUGGACGCGCGACUCGGAUCCUAC [TR-D28]”: the binding result in series [1] (variant of D28) is reported as “no binding”; in series [2] (variant of D28), “binds”; in series [3] (variant of D28), “binds”; in series [4] (analogous to TR-D20, data not shown, variant of D28), “binds”.
